From patent US8222187B2, “Method for improving the phytoremediation of polluted sites by providing plants with exogenous carbohydrates” (Universite de Rennes 1, priority 2003, dated 2012)

Test system: Arabidopsis thaliana
Assay: Atrazine concentration in plants cultivated on agar medium (HPLC-UV)
Assay type: in vivo

Q: How did the “amount of atrazine accumulated from the surrounding agar medium” value (8 g of fresh mass of Arabidopsis plants, with sucrose) turn out when `CCNc1nc(Cl)nc(NC(C)C)n1` [atrazine, 2-chloro-4-ethylamino-6-isopropylamine-1,3,5-triazine] was run?
A: Its value is 95 micrograms.

Q: And the “atrazine content of the plants” value (plants cultivated in the presence of sucrose, atrazine at 0.5 picomoles per milligram of medium)?
A: Its value is 3.7 (±0.3) nanomoles of atrazine per gram of fresh weight.
